Assay results as given in PubChem BioAssay AID1688 (National Center for Advancing Translational Sciences (NCATS), 2009).
The campaign covered roughly 220,000 compounds. About 2,400 (1.1%) were called active. This list was built around the results that the source calls inconclusive (neither active nor inactive); the mix of calls is not that of the screen. The call rests on the fitted dose curve; in most records, active means well fitted inhibition curve with a large enough effect; inconclusive means small, poorly fitted or top-dose-only effect, or effect the other way; inactive means no such curve, though single readings can be large or run the other way. Where the call is inconclusive, the potency comes from a doubtful curve fit.

test: qHTS Multiplex Assay to Identify Dual Action Probes in a Cell Model of Huntington: Aggregate Formation (GFP); conditions: PC12 HttQ103-GFP aggregates, Acumen cytometry, 40 h; activity change, negative = inhibition: at 46.1 µM (top of the series) unless noted; further: nearly all actives have a fitted effect of over 60% in size
Procedure, shortened: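 Ecdysone-promoter PC12 model expressing HTT exon 1 Q103 fused to GFP, induced by tebufenozide at 100 nM final. Compounds titrated; aggregates sized 1–25 µm scored on a 488 nm laser cytometer.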
On the % scale 0 is the no-effect control and ±100 the full control effect; potency means the concentration at half of the fitted maximal effect.

Row | SMILES | Potency | activity change, negative = inhibition
1 | COc1ccc(-c2noc(CCC(=O)N3CCN(c4cc(C)ccc4C)CC3)n2)cc1 | inconclusive: 35.5 µM [inhibitor, single point] | 
2 | O=C(CNCc1ccccn1)N1CCc2ccccc2C1 | inconclusive: 2.82 µM [inhibitor, partial curve, poor fit] | 
3 | COc1cc(NC(=O)CN2CCN(c3ccccc3O)CC2)c(C)cc1[N+](=O)[O-] | inconclusive: 6.31 µM [activator, single point] | 
4 | CCOc1ccc(N(C)S(=O)(=O)c2ccc3[nH]cc(C(=O)NCCOC)c(=O)c3c2)cc1 | inconclusive: 10 µM [inhibitor, partial curve] | 
5 | Cc1csc(NC(=O)c2cc(-c3ccccc3)nc3ccccc23)n1 | inconclusive: 25.1 µM [inhibitor, single point] | 
6 | COc1cccc(N2CCN(c3ncnc4c3cnn4-c3ccc(C)cc3C)CC2)c1 | active: 22.4 µM | 
7 | Cc1c(-c2ccccc2)oc2c(C(=O)N3CCN(c4ccc([N+](=O)[O-])cc4)CC3)cccc2c1=O | active: 3.98 µM | 
8 | Cc1ccc(-c2nn(C)c(=O)c3ccccc23)cc1CNC(=O)c1ccco1 | inconclusive: 35.5 µM [activator, partial curve] | 
9 | Cc1ccc(Sc2c([N+](=O)[O-])ncn2C)cc1 | inconclusive: 35.5 µM [inhibitor, single point] | 
10 | COc1cc(N/N=C/c2ccccc2O)ncn1 | inconclusive: 14.1 µM [inhibitor, single point] | 
11 | O=C(N/N=C/c1ccc(-c2cccc(C(F)(F)F)c2)o1)c1ccccc1O | inconclusive: 10 µM [inhibitor, partial curve] | 
12 | Cc1c(Cl)cccc1NC(=S)N1CCc2ccccc2C1 | inconclusive: 6.31 µM [activator, single point] | 
13 | CNC(=O)c1ccsc1NC(=O)c1ccc(S(=O)(=O)N2CCOCC2)cc1 | inconclusive: 1.78 µM [inhibitor, partial curve] | 
14 | O=C1c2ccccc2NC(c2ccc3c(c2)OCO3)N1O (stereo not drawn) | inconclusive: 35.5 µM [inhibitor, single point] | 
15 | CCN1C(=O)/C(=C/c2ccc(C)o2)N(C)C1=S | inconclusive: 20 µM [inhibitor, single point] | 
16 | Cc1cccc2c1NC(=O)C21N2CCCC2C(C(=O)c2ccc3ccccc3c2)C12C(=O)Nc1ccccc12 (stereo not drawn) |  | inactive: -11.4% [at 9.22 µM]
17 | N#CC1=C(S)N(c2ccccc2)C(c2ccco2)NC1=O (stereo not drawn) |  | inactive: -5.43% [at 9.22 µM]
18 | C=CCNc1nc2c3ccccc3n(C(C)=O)c2s1 | inconclusive: 35.5 µM [inhibitor, single point] | 
19 | COc1cc(/C=C2/S/C(=N/S(=O)(=O)c3ccccc3)NC2=O)c([N+](=O)[O-])cc1OC | inconclusive: 35.5 µM [activator, single point] | 
20 | CC1(C)CC(=O)C2=C(C1)Oc1ncn(Cc3ccco3)c(=N)c1C2c1ccccc1 (stereo not drawn) |  | inactive: -7.79%
21 | COc1ccc(C2C(C#N)=C(SCC(=O)Nc3ccc(C)cc3)NC3=C2C(=O)CC(C)(C)C3)cc1 (stereo not drawn) | active: 11.2 µM | 
22 | NC(=O)c1cc(C(=O)c2ccc(Cl)cc2)c[nH]1 | inconclusive: 11.2 µM [inhibitor, single point] | 

Quoted from the results shown, three compounds:
Row | SMILES | Potency | activity change, negative = inhibition
16 | Cc1cccc2c1NC(=O)C21N2CCCC2C(C(=O)c2ccc3ccccc3c2)C12C(=O)Nc1ccccc12 (stereo not drawn) |  | inactive: -11.4% [at 9.22 µM]
17 | N#CC1=C(S)N(c2ccccc2)C(c2ccco2)NC1=O (stereo not drawn) |  | inactive: -5.43% [at 9.22 µM]
18 | C=CCNc1nc2c3ccccc3n(C(C)=O)c2s1 | inconclusive: 35.5 µM [inhibitor, single point] | 

Continued.

Row | SMILES | Potency | activity change, negative = inhibition
23 | O=C(O)c1cc2nc(-c3cccs3)cc(C(F)(F)F)n2n1 | inconclusive: 2.24 µM [activator, full curve] | 
24 | CCn1c(-c2ccccc2)c(C(=O)CCl)c2ccccc21 | inconclusive: 35.5 µM [inhibitor, single point] | 
25 | COCc1cc(C)nc(SCC[N+](C)(C)CC(=O)Nc2cccc(C(F)(F)F)c2)c1C#N | inconclusive: 35.5 µM [inhibitor, single point] | 
26 | C=CCN=C1NN=C(c2cc(C)n(CCOC)c2C)CS1 |  | inactive: 6.78%
27 | Cc1ccc(S(=O)(=O)Cn2nnnc2C(C)N2CCN(C(=O)c3ccco3)CC2)cc1 (stereo not drawn) |  | inactive: -12.3%
28 | O=C1CN(C(=O)CNCc2ccccc2Cl)c2ccccc2N1 |  | inactive: -0.627% [at 9.22 µM]
29 | Oc1ccc(Oc2ccc3c(C(F)(F)F)cc(C(F)(F)F)nc3n2)cc1 | inconclusive: 28.2 µM [inhibitor, single point] | 
30 | CCOC(=O)c1nc(-c2ccc(OC)c(OC)c2)no1 | active: 0.631 µM | 
31 | CCC(Oc1ccccc1)C(=O)Nc1nc2c(s1)C(=O)CC(C)(C)C2 (stereo not drawn) |  | inactive: -16.5%
32 | S=C(NCCN1CCOCC1)N/N=C/c1ccccc1 |  | inactive: -1.19%
33 | Cc1ccc(Nc2nc3ccccc3n3nnnc23)cc1 | inconclusive: 3.55 µM [inhibitor, partial curve] | 
34 | O=C(Nc1cccc(C(F)(F)F)c1)Nc1ccc(N2CCCC2)c(S(=O)(=O)Nc2ccccc2Cl)c1 | inconclusive: 4.47 µM [inhibitor, full curve] | 
35 | O=C1NCCCc2c1oc1cc(Br)c(O)c(Br)c21 | inconclusive: 8.91 µM [inhibitor, partial curve] | 
36 | Cc1onc(-c2ccccc2Cl)c1C(=O)N(Cc1nc(-c2ccccc2)no1)C1CCCCC1 | inconclusive: 31.6 µM [inhibitor, single point] | 
37 | CN1CCN(c2cc3c(c4c2[nH]c2ccccc24)C(=O)CC(C)(C)C3)CC1 | inconclusive: 12.6 µM [inhibitor, single point] | 
38 | COc1ccccc1NC(=O)N1CCC(c2nc3cc(C)c(C)cc3[nH]2)CC1 | inconclusive: 1.78 µM [inhibitor, partial curve] | 
39 | CCOc1ccc(NC(=O)CN2CCN(C3c4ccccc4-c4ccccc43)CC2)cc1 | inconclusive: 35.5 µM [inhibitor, single point] | 
40 | O=C(Nc1ccccc1)Nc1ccc(F)cc1F | inconclusive: 35.5 µM [inhibitor, single point] | 
41 | O=C(CSc1nnc2scc(-c3ccccc3)n12)Nc1nsc(-c2ccccc2)n1 | inconclusive: 35.5 µM [inhibitor, single point] | 
42 | COc1ccccc1NC(=S)N(Cc1ccc(C)cc1)Cc1ccccn1 | active: 25.1 µM | 
43 | Cc1ccc(N(CC(=O)Nc2cc(Cl)ccc2Oc2ccccc2)S(C)(=O)=O)c(C)c1 | inconclusive: 22.4 µM [inhibitor, single point] | 
